Reference: PubChem BioAssay AID1259405 (NCATS, 2018)
Here is one part, drawn at random, of about 50,000 reagents tested. About 4,000 of them (8%) count as active. 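Mouse siRNA library applied to hamster cells; one well for each siRNA.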 Entries without a mark were called inactive.

Screen: 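Mouse-designed siRNAs used to find CHO productivity engineering targets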 (primary screen)
Cells: Chinese hamster CHO-K1 ovary cells with stable secreted eGFP expression
Reagents: single siRNA against mouse genes, 0.8 pmol siRNA per well (2 µl of 400 nM stock)
Time to read-out: 3 days
Measurement: 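Per-well intracellular GFP measured by laser scanning cytometry, plus viability from ATP luminescence, each relative to plate median of non-targeting control wells, in %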
Direction: GFP, % of control: higher = more GFP per well, higher productivity; viability (ATP), % of control: higher = more viable cells (more ATP)
Hit rule: 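a knock-down is called active if GFP reaches 120% or more of non-targeting control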

| gene knocked down | PubChem SID | GFP, % of control | viability (ATP), % of control |
| --- | --- | --- | --- |
| Acvr2b | SID363570912 | 82.8 | 80.5 |
| Or4c114 | SID363554140 | 64.2 | 62.2 |
| Or4c114 | SID363567587 | 53.4 | 39.4 |
| Or4c114 | SID363584944 | 60.7 | 87.4 |
| Cfhr2 | SID363553631 | 62.8 | 76.4 |
| Cfhr2 | SID363561588 | 55.3 | 52.7 |
| Cfhr2 | SID363565326 | 73.8 | 62 |
| Sh3bp2 | SID363554962 | 58.7 | 45.7 |
| Sh3bp2 | SID363568409 | 103 | 59.5 |
| Sh3bp2 | SID363586468 | 86.8 | 103 |
| Znrf1 | SID363556754 | 47.9 | 70.5 |
| Znrf1 | SID363563658 | 91.6 | 71.1 |
| Znrf1 | SID363587204 | 87.5 | 94 |
| Tcf7l2 | SID363569112 | 69.1 | 66.6 |
| Tcf7l2 | SID363583544 | 65.7 | 83.5 |
| Hsd17b4 | SID363575130 | 96.5 | 68.5 |
| Hsd17b4 | SID363580762 | 64.4 | 62.3 |
| Hsd17b4 | SID363582874 | 72.1 | 73.2 |
| Erv3 | SID363540726 | 127 (active) | 110 |
| Erv3 | SID363543177 | 93.4 | 83.4 |
| Erv3 | SID363552670 | 74.7 | 45.8 |
| S100a3 | SID363582419 | 94.6 | 124 |
| S100a3 | SID363584179 | 93.3 | 71.1 |
| Cep120 | SID363546772 | 30.5 | 25.7 |
| Cep120 | SID363548528 | 60.5 | 46.3 |
| Cep120 | SID363560706 | 16.1 | 23.6 |
| Nrn1l | SID363540019 | 77.3 | 101 |
| Nrn1l | SID363561320 | 62.1 | 60.7 |
| Nrn1l | SID363564356 | 132 (active) | 51.9 |
| Ctrl | SID363574284 | 69.5 | 122 |
| Ctrl | SID363575340 | 66.6 | 30.6 |
| Ctrl | SID363579916 | 68.3 | 67.4 |
| Slc7a6 | SID363547691 | 173 (active) | 60.5 |
| Slc7a6 | SID363558460 | 42.5 | 38 |
| Slc7a6 | SID363560218 | 72.8 | 69.1 |
| Slc7a6 | SID363589663 | 86.9 | 72.3 |
| Slc7a6 | SID363589664 | 99.2 | 109 |
| Slc7a6 | SID363589665 | 91.2 | 96.1 |
| Acsl4 | SID363545413 | 104 | 101 |
| Acsl4 | SID363548926 | 56.7 | 66 |
| Acsl4 | SID363562732 | 44 | 57.9 |
| Cbx2 | SID363546086 | 77.7 | 74.8 |
| Cbx2 | SID363549599 | 77 | 95.4 |
| Cbx2 | SID363563405 | 38.4 | 36 |
| Nit1 | SID363569731 | 85.9 | 75.9 |
| Nit1 | SID363576771 | 79.4 | 50.3 |
| Nit1 | SID363578179 | 130 (active) | 114 |
| Sdc2 | SID363553619 | 67.2 | 72.5 |
| Sdc2 | SID363561576 | 85 | 83.2 |
| Sdc2 | SID363565314 | 44.4 | 44.5 |
| Dock6 | SID363545558 | 92.5 | 68.2 |
| Dock6 | SID363549071 | 99.8 | 88.8 |
| Dock6 | SID363562877 | 62 | 60.7 |
| Vars1 | SID363584542 | 77.9 | 83.2 |
| Vars1 | SID363589572 | 80.2 | 68.1 |
| S100a10 | SID363582434 | 90.1 | 114 |
| S100a10 | SID363584194 | 69.4 | 71 |
| Gpr20 | SID363571237 | 105 | 82.3 |
| Gpr20 | SID363571589 | 76.3 | 62.3 |
| Gpr20 | SID363571941 | 98.9 | 86.1 |
| Cdh23 | SID363572977 | 88.8 | 95.7 |
| Cdh23 | SID363577553 | 67.2 | 75.3 |
| Cdh23 | SID363581073 | 75.6 | 60.9 |
| Cdcp2 | SID363550312 | 98.8 | 111 |
| Cdcp2 | SID363564821 | 161 (active) | 87.2 |
| Cdcp2 | SID363588366 | 76.7 | 93 |
| 6330444E15Rik | SID363552153 | 36.1 | 23.5 |
| 6330444E15Rik | SID363585289 | 61.3 | 80.7 |
| 6330444E15Rik | SID363585640 | 56.8 | 59.7 |
| Yju2b | SID363545951 | 69.8 | 124 |
| Yju2b | SID363549464 | 72.8 | 82.5 |
| Yju2b | SID363563270 | 103 | 100 |
| Mtln | SID363540681 | 99.2 | 83.8 |
| Mtln | SID363543132 | 65.9 | 70 |
| Mtln | SID363552625 | 55.8 | 83.2 |
| Xlr4c | SID363544026 | 51.5 | 72.1 |
| Xlr4c | SID363551762 | 51.1 | 44 |
| Xlr4c | SID363559367 | 78.2 | 63.7 |
| Dgcr2 | SID363539801 | 69.9 | 98.3 |
| Dgcr2 | SID363561102 | 58.6 | 84.4 |
| Dgcr2 | SID363565192 | 127 (active) | 55.2 |
| Glipr2 | SID363540142 | 49.7 | 61.1 |
| Glipr2 | SID363561443 | 80.2 | 80.9 |
| Glipr2 | SID363564479 | 55.2 | 84.8 |
| Cox18 | SID363547705 | 151 (active) | 108 |
| Cox18 | SID363558474 | 76.8 | 59.4 |
| Cox18 | SID363560232 | 63.3 | 67.8 |
| Pde1c | SID363569776 | 92.8 | 90.4 |
| Pde1c | SID363576816 | 61.6 | 60.2 |
| Pde1c | SID363578224 | 57.5 | 79.1 |
| Grn | SID363541391 | 67.7 | 79.7 |
| Grn | SID363556018 | 75.6 | 69 |
| Grn | SID363566307 | 37.3 | 56.4 |
| Gm5114 | SID363542490 | 40.3 | 46.3 |
| Gm5114 | SID363551981 | 53.2 | 65.8 |
| Gm5114 | SID363559586 | 42.5 | 56.4 |
| Phldb1 | SID363554464 | 71.7 | 52.4 |
| Phldb1 | SID363567911 | 104 | 96.1 |
| Phldb1 | SID363585970 | 93.8 | 133 |
| Hsd17b1 | SID363575078 | 83.3 | 67.4 |
| Hsd17b1 | SID363580710 | 157 (active) | 67.2 |
| Hsd17b1 | SID363582822 | 112 | 81.8 |
| Gins4 | SID363543748 | 22.8 | 55.6 |
| Gins4 | SID363551484 | 36.3 | 31.5 |
| Gins4 | SID363559089 | 64.8 | 66.7 |
| Prx | SID363555024 | 121 (active) | 126 |
| Prx | SID363568471 | 68.7 | 66 |
| Prx | SID363586530 | 71.9 | 88.2 |
